For one molecule, EC50 results are on record in patent US7754722B2, “Piperazine derivatives and methods of use” (Merck Serono SA, priority 2002, dated 2010).

Sequences of proteins named here, by UniProt entry; tags and fusion partners are left off. Residues count along the entry.
UniProt P23945, 18-695 limits assumed: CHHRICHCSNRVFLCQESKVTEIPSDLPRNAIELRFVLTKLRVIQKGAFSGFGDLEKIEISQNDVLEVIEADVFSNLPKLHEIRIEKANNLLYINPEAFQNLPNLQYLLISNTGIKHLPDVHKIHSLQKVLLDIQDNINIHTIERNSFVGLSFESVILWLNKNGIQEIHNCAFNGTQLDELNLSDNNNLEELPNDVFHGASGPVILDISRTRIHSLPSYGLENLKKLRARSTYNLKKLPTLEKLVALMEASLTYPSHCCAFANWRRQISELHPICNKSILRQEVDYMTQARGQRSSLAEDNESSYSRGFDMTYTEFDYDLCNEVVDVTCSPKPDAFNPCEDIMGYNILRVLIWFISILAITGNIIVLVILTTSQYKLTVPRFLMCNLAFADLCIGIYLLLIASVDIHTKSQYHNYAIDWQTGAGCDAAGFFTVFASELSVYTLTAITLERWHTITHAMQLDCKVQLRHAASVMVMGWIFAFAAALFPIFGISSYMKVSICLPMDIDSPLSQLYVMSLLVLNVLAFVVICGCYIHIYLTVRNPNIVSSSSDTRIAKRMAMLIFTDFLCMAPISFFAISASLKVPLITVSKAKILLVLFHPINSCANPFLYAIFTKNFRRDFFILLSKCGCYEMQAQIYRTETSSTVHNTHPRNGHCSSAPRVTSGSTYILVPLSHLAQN

Structures were worked out from names or drawings and are uncertain.

In the assay the target is FSH receptor (Homo sapiens, UniProt P23945). Nature of the assay: FSH assay: cAMP response element luciferase reporter in CHO cells expressing recombinant FSH receptor. To be noted: read-out: ED50; agonist activity; CHO cells stably transfected with recombinant FSH receptor; luciferase luminescence; log-dose-response curves; incubation 37° C. for 3 hrs 30 min. How it is done: Compounds of the invention were tested in the following assay.
All compounds of the invention were stored in 96-well deepwell plates in DMSO at a nominal concentration of 10 μM. Compounds of the invention were screened for agonist activity at the FSH receptor using the recombinant FSH receptor stably transfected and expressed in Chinese Hamster Ovary Cells (CHO cells) essentially as described in the work by Kelton, et al. Molecular and Cellular Endocrinology, 1992, 89, 141-151). […] Thus an agonist at the FSH receptor increases cAMP in the cell which results in activation of the CREB (cAMP) response element binding protein). The substrate for the enzyme (Packard Instrument Company 800 Research Parkway, Meriden, Conn. 06450, USA) was added to the cells after appropriate incubation with the compounds or FSH and the amount of luciferase expressed was measured by quantitating the luminescence produced by the enzyme using a TopCount scintillation/luminescence counter running in single photon counting mode. A compound which acts as an agonist at the receptor should produce light from the treated cells in proportion to its concentration within the incubation. Luminescence should be saturable at high concentrations of the compound. […]
(In general: A reporter such as luciferase makes a cellular process visible.)

For `CCCCCCCCN1CCN(S(=O)(=O)c2cccs2)[C@H](C(=O)Nc2ccc3c(c2)nc(-c2cccnc2)n3CC)C1`, the EC50 was 13 nM.
